Holding throughout (experiment): co-IP; crude membrane fraction of yeast solubilised with 1% DMNG in 50 mM Tris-HCl pH 7.4, 200 mM NaCl, 1 mM EDTA; tagged protein isolated 2 h at 4°C on anti-HA, anti-V5 or anti-Myc magnetic beads, washed with 0.02% DMNG; Pex30 detected by immunoblot with anti-Pex30
(Immunoblotting shows a protein as a band on a membrane.)

For test [1], the target named is T1, Pex28-13xMyc (S. cerevisiae) (UniProt P38848).
T1 sequence: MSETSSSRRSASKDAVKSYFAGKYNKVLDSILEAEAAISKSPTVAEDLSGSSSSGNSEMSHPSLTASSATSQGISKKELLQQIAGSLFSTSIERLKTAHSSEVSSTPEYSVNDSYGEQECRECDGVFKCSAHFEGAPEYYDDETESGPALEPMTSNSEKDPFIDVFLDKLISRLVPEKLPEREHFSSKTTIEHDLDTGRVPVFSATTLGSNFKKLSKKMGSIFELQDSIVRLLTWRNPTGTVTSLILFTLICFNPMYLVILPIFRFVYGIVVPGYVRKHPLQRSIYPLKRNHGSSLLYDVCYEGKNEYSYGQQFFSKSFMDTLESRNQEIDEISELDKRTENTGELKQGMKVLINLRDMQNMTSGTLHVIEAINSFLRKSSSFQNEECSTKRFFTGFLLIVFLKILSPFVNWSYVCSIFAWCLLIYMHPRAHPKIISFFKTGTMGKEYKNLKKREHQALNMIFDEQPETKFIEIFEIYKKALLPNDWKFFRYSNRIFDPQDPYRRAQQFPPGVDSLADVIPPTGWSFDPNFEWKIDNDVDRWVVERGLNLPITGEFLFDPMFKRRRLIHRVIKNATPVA

For a further test, the target named is T2, Pex29-V5 (S. cerevisiae) (UniProt Q03370).
T2 sequence: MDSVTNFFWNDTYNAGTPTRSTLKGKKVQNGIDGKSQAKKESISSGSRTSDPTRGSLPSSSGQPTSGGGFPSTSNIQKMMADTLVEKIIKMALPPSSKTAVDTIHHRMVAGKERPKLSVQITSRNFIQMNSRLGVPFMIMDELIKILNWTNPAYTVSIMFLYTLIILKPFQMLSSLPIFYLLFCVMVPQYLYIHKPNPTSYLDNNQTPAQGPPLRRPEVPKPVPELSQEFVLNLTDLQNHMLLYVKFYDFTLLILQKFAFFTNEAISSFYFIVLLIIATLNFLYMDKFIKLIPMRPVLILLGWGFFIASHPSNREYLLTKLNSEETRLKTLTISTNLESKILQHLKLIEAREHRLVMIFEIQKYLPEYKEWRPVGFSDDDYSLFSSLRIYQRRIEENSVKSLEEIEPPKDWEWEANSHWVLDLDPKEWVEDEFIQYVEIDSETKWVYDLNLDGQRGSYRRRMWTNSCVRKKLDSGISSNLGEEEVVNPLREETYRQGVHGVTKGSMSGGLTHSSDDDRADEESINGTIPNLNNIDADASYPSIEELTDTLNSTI

For test [2], the target named is T3, Pex32-3xHA (S. cerevisiae) (UniProt P38292).
T3 sequence: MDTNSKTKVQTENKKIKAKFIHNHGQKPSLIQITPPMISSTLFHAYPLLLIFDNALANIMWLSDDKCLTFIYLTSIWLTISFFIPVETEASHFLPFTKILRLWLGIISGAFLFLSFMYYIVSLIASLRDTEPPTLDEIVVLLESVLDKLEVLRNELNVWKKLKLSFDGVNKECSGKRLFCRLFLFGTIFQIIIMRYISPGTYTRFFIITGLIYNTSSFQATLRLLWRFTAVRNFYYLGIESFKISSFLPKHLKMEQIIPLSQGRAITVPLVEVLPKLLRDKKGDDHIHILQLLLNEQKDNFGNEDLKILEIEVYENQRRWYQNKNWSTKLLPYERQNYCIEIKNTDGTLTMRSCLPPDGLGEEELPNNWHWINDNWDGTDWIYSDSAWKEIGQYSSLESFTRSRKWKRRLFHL

Results are given in words; binding and its absence hold for the method and conditions named. In cells and extracts the contact can be indirect. Some binding calls cover weakened binding; strength is not graded here. For some assays here: Sequences can lack the tags named with a protein.

B1: Pex30 (protein, UniProt Q06169 1-523)
chain: MSGNTTNVHETRAKFAETLQPRIGGNTTKVIRAALEKNEAESGVSEDNDNGSLEKVNVATSPLLTSTPPTISKALVKLYPYLILIDEFLNVVTWTGKNIWSSVLMLCLFITTVEYFETLVKYFGHLAIIAILWGYSLLDNYIEGTLSSSPTLEDIALLMNRVSLKSDILLSPMVNLGTQDIQRLLYTTVILSPIYVMITWLLLPPRSLMLMVGMFLLTYHSPWSKVARRLLWKFKIVRLLVFYVTGLDLGGINKDQGIFATVQKQVKKLASTENSNGVLSDSKPIRFTYVLYENQRRWLGIGWKPSMLSYERTPWTDEFLNEAPSPENFHLPEETNTMVWRWVDKTWRLDMTNDGAIQVPNSKARTSADPSPDEGFIYYDNTWKKPSKEDSFSKYTRRRRWVRTAELVKTSDFDESVINSNRNSAIEQKVEENSTNGLTAEQELGSNKQEKDNAKKVGEPTTEETKEFAEASNINEGEFERISSTDEEVLKSRARDRLAKVLDDTEEKEQSNPTIGRDSKKAV
For B1, the binding result (in test [1]; with Pex29-V5 (S. cerevisiae); in test [2]) was “binds” in each case.

B2: Pex30^S446A (protein, UniProt Q06169 1-523)
chain: MSGNTTNVHETRAKFAETLQPRIGGNTTKVIRAALEKNEAESGVSEDNDNGSLEKVNVATSPLLTSTPPTISKALVKLYPYLILIDEFLNVVTWTGKNIWSSVLMLCLFITTVEYFETLVKYFGHLAIIAILWGYSLLDNYIEGTLSSSPTLEDIALLMNRVSLKSDILLSPMVNLGTQDIQRLLYTTVILSPIYVMITWLLLPPRSLMLMVGMFLLTYHSPWSKVARRLLWKFKIVRLLVFYVTGLDLGGINKDQGIFATVQKQVKKLASTENSNGVLSDSKPIRFTYVLYENQRRWLGIGWKPSMLSYERTPWTDEFLNEAPSPENFHLPEETNTMVWRWVDKTWRLDMTNDGAIQVPNSKARTSADPSPDEGFIYYDNTWKKPSKEDSFSKYTRRRRWVRTAELVKTSDFDESVINSNRNSAIEQKVEENSTNGLTAEQELGANKQEKDNAKKVGEPTTEETKEFAEASNINEGEFERISSTDEEVLKSRARDRLAKVLDDTEEKEQSNPTIGRDSKKAV
In the case of B2, in the test with Pex29-V5 (S. cerevisiae), the binding entry is “binds”.

B3: Pex30^S446D (protein, UniProt Q06169 1-523)
chain: MSGNTTNVHETRAKFAETLQPRIGGNTTKVIRAALEKNEAESGVSEDNDNGSLEKVNVATSPLLTSTPPTISKALVKLYPYLILIDEFLNVVTWTGKNIWSSVLMLCLFITTVEYFETLVKYFGHLAIIAILWGYSLLDNYIEGTLSSSPTLEDIALLMNRVSLKSDILLSPMVNLGTQDIQRLLYTTVILSPIYVMITWLLLPPRSLMLMVGMFLLTYHSPWSKVARRLLWKFKIVRLLVFYVTGLDLGGINKDQGIFATVQKQVKKLASTENSNGVLSDSKPIRFTYVLYENQRRWLGIGWKPSMLSYERTPWTDEFLNEAPSPENFHLPEETNTMVWRWVDKTWRLDMTNDGAIQVPNSKARTSADPSPDEGFIYYDNTWKKPSKEDSFSKYTRRRRWVRTAELVKTSDFDESVINSNRNSAIEQKVEENSTNGLTAEQELGDNKQEKDNAKKVGEPTTEETKEFAEASNINEGEFERISSTDEEVLKSRARDRLAKVLDDTEEKEQSNPTIGRDSKKAV
With B3, the binding result with Pex29-V5 (S. cerevisiae) was “binds”.
